# Results from the supplement of paper PMC11732987, “Enantioselective OTUD7B fragment discovery through chemoproteomics screening and high-throughput optimisation” (Communications Chemistry, 2025).
# Some of the results follow. The data scatter; read single values as rough.
# Tested on: HIVEP2 C2329
# Test: log2 mean competition ratio of IA-DTB cysteine labelling (DMSO/compound) (log2 ratio); higher = stronger cysteine engagement by compound
# Details: 50 µM; treatment time: 4 h; cell line lysate: HEK293T
# Procedure: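 IA-DTB competitive cysteine chemoproteomics in HEK293T RIPA lysate. Lysates were treated with compound 29 or 30 at 50 or 200 µM for 4 h, then IA-DTB (500 µM, 1 h), trypsin-digested, NeutrAvidin-enriched and analysed by diaPASEF. Competition ratio = intensity DMSO / intensity compound (n=4 treated, n=64 DMSO); binding: mean log2 CR ≥ 1 and p ≤ 0.05 plus QC filters. Target is the cysteine site.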
row,Compound,log2 mean competition ratio
1,O=C(CCl)N[C@@H]1CCCc2ccccc21,0.0137
2,O=C(CCl)N[C@H]1CCCc2ccccc21,0.0117

# Same assay, conditions: 200 µM; treatment time: 4 h; cell line lysate: HEK293T
row,Compound,log2 mean competition ratio
1,O=C(CCl)N[C@@H]1CCCc2ccccc21,0.0072
2,O=C(CCl)N[C@H]1CCCc2ccccc21,-0.141
